Source: patent US20060069152A1, “Crystalline mycophenolate sodium” (priority 2004, published 2006)
For at least one compound, name, drawing or mass did not settle the structure.

What was measured:
[1] = Crystal form transformation by heating in an oven at atmospheric pressure, XRD before and after; assay type: physicochemical; conditions: 30 min.
Description: Representatives of all monosodium and disodium mycophenolate crystal forms, M1, M2, M1±M3, D1 and D1±D2 were heated in an oven at atmospheric pressure at 130° C. and 170° C. for 30 minutes. The samples were analyzed by XRD before and after heating.
(§1) ARL X-ray powder diffractometer model X′TRA-030, Peltier detector, round standard aluminum sample holder with round zero background quartz plate was used. Scanning parameters: Range: 2-40 deg. 2 θ, continuous Scan, Rate: 3 deg./min. The accuracy of peak positions is defined as ±/−0.2 degrees due to experimental differences like instrumentations, sample preparations etc.
200 mg of a mixture of Forms M1±M3 as identified by XRD, was put into an oven in a glass weighing bottle at 170° C. for 0.5 h. Then it was put into a desiccator and allowed to cool to room temperature. […] Transformation of M2 to M1, M3 to M1 and D1 to D2 by water vapors absorption

[2] = Hygroscopicity: crystal forms exposed to different levels of humidity for one week, then analysed by TGA and XRD; assay type: physicochemical; conditions: for Form (crystal form after humidity exposure) / LOD(%): one week; for Form (crystal form after humidity exposure): XRD; for LOD(%): TGA
Description: The hygroscopicity of monosodium mycophenolate crystal forms M1, M2, M3 and disodium mycophenolate crystal forms D1 and D1±D2 were also investigated. Form M1, M2, M3, D1 and D1±D2 were exposed to different level of humidity for one week and after equilibrium they were analysed by TGA and XRD for water content and crystal structure. Table 5 summarizes the results:
as §1
• TGA/SDTA 851^e, Mettler Toledo, Sample weight 7-15 mg. • Heating rate: 10° C./min., In N2 stream: flow rate=50 ml/min • Scan range: 30-250° C. Microscope
200 mg of each of the following samples: crystal Form M2, crystal Form M3 and crystal Form D1 were put at room temperature into a hygroscopicity chamber containing 100% relative humidity for one week. After one week they were measured again by XRD to determine their crystal forms.

COc1c(C)c2c(c([O-])c1C/C=C(\C)CCC(=O)[O-])C(=O)OC2.[Na+].[Na+] [D1 + D2, disodium mycophenolate]
Crystal form after heating (XRD) ([1]; 130° C.): D1 | Form (crystal form after humidity exposure) ([2]; 20% RH): D1 + D2 | Form (crystal form after humidity exposure) ([2]; 40% RH): D1 + D2 | Form (crystal form after humidity exposure) ([2]; 100% RH, room temperature): D2

COc1c(C)c2c(c([O-])c1C/C=C(\C)CCC(=O)[O-])C(=O)OC2.[Na+].[Na+] [Form D1, disodium mycophenolate]
Crystal form after heating (XRD) ([1]; 170° C.): D1 | Form (crystal form after humidity exposure) ([2]; 40% RH, listed as D1): D1 | Form (crystal form after humidity exposure) ([2]; 60% RH): D1 + D2 | Form (crystal form after humidity exposure) ([2]; 80% RH): D2

COc1c(C)c2c(c(O)c1C/C=C(\C)CCC(=O)O)C(=O)OC2 [Form M1, mycophenolate sodium]
Crystal form after heating (XRD) ([1]; 130° C., listed as M1): M3 >>M1 | LOD(%) ([2]; 20% RH): 4.5% | Form (crystal form after humidity exposure) ([2]; 20% RH): M1 | LOD(%) ([2]; 40% RH, listed as M1): 4.9% | Form (crystal form after humidity exposure) ([2]; 40% RH, listed as M1): M1 | LOD(%) ([2]; 60% RH, listed as M1): 5.1% | Form (crystal form after humidity exposure) ([2]; 60% RH, listed as M1): M1 | LOD(%) ([2]; 80% RH, listed as M1): 5.2% | Form (crystal form after humidity exposure) ([2]; 80% RH, listed as M1): M1 | LOD(%) ([2]; 100% RH, listed as M1): 31.2% | Form (crystal form after humidity exposure) ([2]; 100% RH, room temperature): M1 | equilibrium water content ([2]; after humidity exposure): about 5%

COc1c(C)c2c(c(O)c1C/C=C(\C)CCC(=O)O)C(=O)OC2 [Form M2, mycophenolate sodium]
Crystal form after heating (XRD) ([1]; 130° C., listed as M2): M2 | Crystal form after heating (XRD) ([1]; 170° C.): M2 | LOD(%) ([2]; 40% RH, listed as M2): 0.1% | Form (crystal form after humidity exposure) ([2]; 40% RH, listed as M2): M2 | LOD(%) ([2]; 60% RH, listed as M2): 0.2% | Form (crystal form after humidity exposure) ([2]; 60% RH, listed as M2): M2 | LOD(%) ([2]; 80% RH, listed as M2): 0.4% | Form (crystal form after humidity exposure) ([2]; 80% RH, listed as M2): M2 | LOD(%) ([2]; 100% RH, listed as M2): 45.2%

COc1c(C)c2c(c(O)c1C/C=C(\C)CCC(=O)O)C(=O)OC2 [Form M3, mycophenolate sodium]
LOD(%) ([2]; 40% RH, listed as M3): 1.5% | Form (crystal form after humidity exposure) ([2]; 40% RH, listed as M3): M3 >> M1 | LOD(%) ([2]; 60% RH, listed as M3): 2.3% | Form (crystal form after humidity exposure) ([2]; 60% RH, listed as M3): M3 + M1 | LOD(%) ([2]; 80% RH, listed as M3): 4.9% | Form (crystal form after humidity exposure) ([2]; 80% RH, listed as M3): M1 | LOD(%) ([2]; 100% RH, listed as M3): 34.3%

COc1c(C)c2c(c(O)c1C/C=C(\C)CCC(=O)[O-])C(=O)OC2.[Na+] [M1 + M3, mycophenolate sodium]
Crystal form after heating (XRD) ([1]; 170° C.): M2
